Test results as given in paper PMC5226550.
No constants are given. Whether binding was seen depends on the method and setting. In cells and extracts the contact can be indirect. Some results given as binding are weak or reduced against the parent protein; the word gives no strength.

The chains behind the UniProt entries cited, without tags or fusion partners.
UniProt P08050: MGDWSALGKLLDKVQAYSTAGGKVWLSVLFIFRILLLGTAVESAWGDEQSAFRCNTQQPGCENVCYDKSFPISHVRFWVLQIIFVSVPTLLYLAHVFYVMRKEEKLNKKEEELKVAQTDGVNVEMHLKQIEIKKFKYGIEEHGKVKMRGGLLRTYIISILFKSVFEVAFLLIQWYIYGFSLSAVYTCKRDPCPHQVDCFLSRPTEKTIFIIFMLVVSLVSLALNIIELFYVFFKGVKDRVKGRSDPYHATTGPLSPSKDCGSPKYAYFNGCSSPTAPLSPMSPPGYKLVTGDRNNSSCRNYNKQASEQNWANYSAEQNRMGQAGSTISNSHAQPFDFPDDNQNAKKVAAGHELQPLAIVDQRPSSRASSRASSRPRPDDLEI
UniProt P32577: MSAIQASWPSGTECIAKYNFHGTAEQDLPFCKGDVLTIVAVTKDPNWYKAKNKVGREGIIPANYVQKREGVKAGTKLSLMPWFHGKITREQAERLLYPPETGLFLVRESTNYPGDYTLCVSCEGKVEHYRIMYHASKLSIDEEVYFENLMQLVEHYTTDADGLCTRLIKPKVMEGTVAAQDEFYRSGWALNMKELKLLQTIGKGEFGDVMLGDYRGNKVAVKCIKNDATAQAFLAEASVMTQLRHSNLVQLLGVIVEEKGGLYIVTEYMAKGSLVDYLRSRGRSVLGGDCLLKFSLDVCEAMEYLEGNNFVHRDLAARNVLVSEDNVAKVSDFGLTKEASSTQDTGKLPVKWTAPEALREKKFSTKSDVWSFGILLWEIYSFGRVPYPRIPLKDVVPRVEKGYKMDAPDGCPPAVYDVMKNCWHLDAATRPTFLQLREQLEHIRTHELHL
UniProt O54857: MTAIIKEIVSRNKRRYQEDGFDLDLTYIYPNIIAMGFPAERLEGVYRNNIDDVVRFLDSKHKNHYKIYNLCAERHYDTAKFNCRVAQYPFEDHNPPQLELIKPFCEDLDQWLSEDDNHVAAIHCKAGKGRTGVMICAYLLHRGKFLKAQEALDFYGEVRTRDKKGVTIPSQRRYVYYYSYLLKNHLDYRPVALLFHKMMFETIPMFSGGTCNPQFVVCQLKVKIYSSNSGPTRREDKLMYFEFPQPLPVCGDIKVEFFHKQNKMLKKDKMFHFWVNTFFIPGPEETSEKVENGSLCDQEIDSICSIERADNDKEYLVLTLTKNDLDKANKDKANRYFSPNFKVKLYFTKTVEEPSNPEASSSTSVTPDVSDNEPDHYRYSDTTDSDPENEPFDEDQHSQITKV

Experiments:
Assay in all cases: co-IP
[1] = target: Connexin43 (endogenous in astrocytes) (rat (endogenous in Wistar rat astrocytes)) (UniProt P08050)
[2] = target: C-terminal Src kinase (rat (endogenous in C6 glioma cells and Wistar rat astrocytes)) (UniProt P32577)
Flag WT-PTEN = Flag WT-PTEN (UniProt P60484)
Flag ΔPDZ-PTEN (1-400) = Flag ΔPDZ-PTEN (1-400) (UniProt P60484)
HA-PTEN = HA-PTEN (UniProt P60484)

| binding [1] | binding [2] | binding (Flag WT-PTEN) | binding (Flag ΔPDZ-PTEN (1-400)) | binding (HA-PTEN) | Substance |
| --- | --- | --- | --- | --- | --- |
| binds | – | – | – | – | phosphatase and tensin homolog (endogenous) (from UniProt O54857 1-403) (enzyme) |
| – | binds | binds | binds | – | Connexin43 (endogenous in astrocytes) (from UniProt P08050 1-382) |
| – | – | binds | binds | binds | Connexin43 (rat, stably transfected in C6 glioma cells) (from UniProt P08050 1-382) |
